Results are given in words; binding and its absence hold for the method and conditions named. Binding seen in cells or lysates may run through a third protein. Some binding calls cover weakened binding; strength is not graded here.

The chains behind the UniProt entries cited, without tags or fusion partners.
UniProt Q14258: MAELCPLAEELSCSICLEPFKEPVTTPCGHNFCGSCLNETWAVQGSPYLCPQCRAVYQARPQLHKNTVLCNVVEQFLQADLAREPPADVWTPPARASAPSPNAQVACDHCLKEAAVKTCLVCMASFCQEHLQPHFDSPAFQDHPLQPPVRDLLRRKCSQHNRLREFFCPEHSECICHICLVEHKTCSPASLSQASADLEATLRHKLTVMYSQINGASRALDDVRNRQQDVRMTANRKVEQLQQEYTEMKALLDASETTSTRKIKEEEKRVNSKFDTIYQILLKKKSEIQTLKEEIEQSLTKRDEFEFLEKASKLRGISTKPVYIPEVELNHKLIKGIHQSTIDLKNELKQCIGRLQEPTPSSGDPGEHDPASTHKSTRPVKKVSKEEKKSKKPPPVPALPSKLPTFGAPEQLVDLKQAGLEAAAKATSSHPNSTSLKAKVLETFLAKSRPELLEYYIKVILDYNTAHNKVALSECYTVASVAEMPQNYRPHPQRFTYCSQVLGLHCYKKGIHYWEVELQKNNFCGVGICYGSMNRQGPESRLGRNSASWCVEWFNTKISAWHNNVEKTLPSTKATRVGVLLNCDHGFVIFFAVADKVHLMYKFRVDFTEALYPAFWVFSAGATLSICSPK
UniProt Q7Z2W4: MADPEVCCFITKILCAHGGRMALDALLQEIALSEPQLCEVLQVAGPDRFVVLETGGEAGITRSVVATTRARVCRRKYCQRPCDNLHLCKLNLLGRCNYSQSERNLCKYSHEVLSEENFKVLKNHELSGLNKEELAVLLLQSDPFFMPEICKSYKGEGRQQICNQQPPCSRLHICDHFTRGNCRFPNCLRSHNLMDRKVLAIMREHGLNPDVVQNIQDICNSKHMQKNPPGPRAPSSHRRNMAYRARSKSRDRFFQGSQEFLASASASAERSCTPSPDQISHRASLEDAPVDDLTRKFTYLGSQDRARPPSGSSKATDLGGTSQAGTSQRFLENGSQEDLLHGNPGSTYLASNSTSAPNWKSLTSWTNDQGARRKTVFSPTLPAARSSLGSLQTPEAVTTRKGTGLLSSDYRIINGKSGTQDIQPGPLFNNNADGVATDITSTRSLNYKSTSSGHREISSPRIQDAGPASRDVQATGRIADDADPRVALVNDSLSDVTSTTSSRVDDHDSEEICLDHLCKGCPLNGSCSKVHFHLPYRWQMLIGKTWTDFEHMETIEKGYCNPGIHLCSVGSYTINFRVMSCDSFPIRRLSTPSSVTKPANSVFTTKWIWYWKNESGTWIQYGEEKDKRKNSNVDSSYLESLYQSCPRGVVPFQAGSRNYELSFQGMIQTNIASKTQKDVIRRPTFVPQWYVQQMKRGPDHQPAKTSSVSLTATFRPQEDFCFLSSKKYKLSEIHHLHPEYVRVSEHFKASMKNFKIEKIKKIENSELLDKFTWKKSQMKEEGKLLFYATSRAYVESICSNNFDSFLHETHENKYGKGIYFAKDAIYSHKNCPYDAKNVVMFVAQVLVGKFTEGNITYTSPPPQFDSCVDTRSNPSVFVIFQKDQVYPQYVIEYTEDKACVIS

The test concerns the target T7-tagged TRIM25 (human) (UniProt Q14258). As to the kind of experiment: co-IP.

Consider “zinc-finger antiviral protein (ZAP), untagged (from UniProt Q7Z2W4 1-902)”, for which the binding entry was “binds”.

These data come from PMC9262604.
